Experimental findings from publication PMC5413348, “Structure of Fam20A reveals a pseudokinase featuring a unique disulfide pattern and inverted ATP-binding” (eLife, 2017) are described below.

By UniProt entry, the sequences of proteins in these tests, tags left out. Where a name states a change or a piece, a line headed by the entry shows the natural chain unless it says otherwise.
UniProt Q8IXL6: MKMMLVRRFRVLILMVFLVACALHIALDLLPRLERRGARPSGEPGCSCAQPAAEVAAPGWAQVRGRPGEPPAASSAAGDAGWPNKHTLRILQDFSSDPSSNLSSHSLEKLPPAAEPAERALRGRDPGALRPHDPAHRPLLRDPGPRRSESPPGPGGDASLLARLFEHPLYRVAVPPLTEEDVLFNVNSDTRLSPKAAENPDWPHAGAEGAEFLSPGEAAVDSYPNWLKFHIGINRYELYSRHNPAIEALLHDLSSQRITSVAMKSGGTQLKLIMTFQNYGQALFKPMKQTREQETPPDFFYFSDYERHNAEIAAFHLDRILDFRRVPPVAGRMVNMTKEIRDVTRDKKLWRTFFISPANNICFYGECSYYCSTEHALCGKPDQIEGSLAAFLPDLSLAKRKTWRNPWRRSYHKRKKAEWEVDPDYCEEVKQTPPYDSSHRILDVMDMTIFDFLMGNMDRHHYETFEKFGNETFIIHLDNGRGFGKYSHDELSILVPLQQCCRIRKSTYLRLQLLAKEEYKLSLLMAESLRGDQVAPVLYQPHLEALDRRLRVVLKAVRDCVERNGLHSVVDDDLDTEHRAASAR

Results are given in words; binding and its absence hold for the method and conditions named. Binding calls can cover weak binding; strength is not graded here.

Experiment [1] addresses Fam20C, recombinantly purified (UniProt Q8IXL6). The experiment in a line: SEC; purified Fam20A and Fam20C mixed, Fam20A in slight excess, gel filtration in the absence or presence of 250 μM ATP; both purified. Background: SEC sorts molecules by how far they enter the pores of the column.
Experiment [2] has the same target. Description: negative-stain single particle electron microscopy; Fam20A/20C complexes mixed with or without ATP (250 μM), purified by size exclusion chromatography, diluted to 40 nM, 2% uranyl acetate, 2D class averages; both purified.

B1: Human Fam20A residues 69–529 (domain or fragment, UniProt Q96MK3 69-529, looked up)
chain: HNFSRTEPRTEPAGGSHSGSSSKLQALFAHPLYNVPEEPPLLGAEDSLLASQEALRYYRRKVARWNRRHKMYREQMNLTSLDPPLQLRLEASWVQFHLGINRHGLYSRSSPVVSKLLQDMRHFPTISADYSQDEKALLGACDCTQIVKPSGVHLKLVLRFSDFGKAMFKPMRQQRDEETPVDFFYFIDFQRHNAEIAAFHLDRILDFRRVPPTVGRIVNVTKEILEVTKNEILQSVFFVSPASNVCFFAKCPYMCKTEYAVCGNPHLLEGSLSAFLPSLNLAPRLSVPNPWIRSYTLAGKEEWEVNPLYCDTVKQIYPYNNSQRLLNVIDMAIFDFLIGNMDRHHYEMFTKFGDDGFLIHLDNARGFGRHSHDEISILSPLSQCCMIKKKTLLHLQLLAQADYRLSDVMRESLLEDQLSPVLTEPHLLALDRRLQTILRTVEGCIVAHGQQSVIVDGPVEQ
notes: Fam20A, human, residues 69-529, secreted from a modified pI-secSUMOstar vector; the 6xHis-SUMO tag was removed by TEV protease; The only purified Fam20A construct that the methods describe; also called untagged Fam20A; purified Fam20A; source: Hi5 insect cells (baculovirus), conditioned medium, purified (Ni-NTA, Resource Q, Superdex 200); not shown: 6xHis, N-terminal, cleaved; SUMO, N-terminal, …
On to B1, for which the binding entry in experiment [1] and in experiment [2] was “binds” in each case.
